The exact form of at least one protein or probe is not confirmed. At least one verdict rests on a figure or table, not on a statement of the authors. Protein sequences can lack the tags named with them.
Molecular target: T1, PrgX (Enterococcus faecalis (plasmid pCF10)) (UniProt Q04114)
T1 sequence (looked up, limits assumed): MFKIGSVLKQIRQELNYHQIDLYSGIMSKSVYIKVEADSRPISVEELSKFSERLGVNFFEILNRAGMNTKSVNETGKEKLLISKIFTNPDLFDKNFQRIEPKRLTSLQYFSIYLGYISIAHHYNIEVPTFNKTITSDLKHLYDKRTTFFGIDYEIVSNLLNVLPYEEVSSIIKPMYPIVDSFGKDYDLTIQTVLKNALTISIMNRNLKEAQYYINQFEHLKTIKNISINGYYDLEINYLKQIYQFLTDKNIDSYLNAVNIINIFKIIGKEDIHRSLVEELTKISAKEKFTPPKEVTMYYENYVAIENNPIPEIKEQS
Test: EMSA
Conditions: cCF10 (C), virtually identical to I; EMSA: 20 mM Tris-HCl pH 7.9, 0.1 M NaCl, 0.1 mM EDTA, 10% glycerol, 10 mM MgCl2, 1 ug poly-[d(A-T)], 0.1 ug poly-L-lysine, 20 ul, room temperature 15 min; recombinant protein; label: 3' DIG-11-ddUTP

“TGTTAATATTTTAATTTTAGGTATTGAATACGACACTCGAAGATGTGTTTATTAAGCTATATCCCTTTTTTTTAAAAAAAAATA (double strand) [XBS1 DNA]”: binds.

Source: publication PMC5552905, “Mechanisms of peptide sex pheromone regulation of conjugation in Enterococcus faecalis” (MicrobiologyOpen, 2017)
